Values from PubChem BioAssay AID720505 (Drosophila RNAi Screening Center, 2013).
The deposit covers about 20,000 reagents; this is a random part of those with a known target gene and a result. Over the whole deposit, about 2,100 (10%) were called active. 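Raw plate signals without normalisation; calls rest on control-based scores that were not deposited; replicate 2 separates called from uncalled poorly.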 A plus sign joins genes that one reagent is predicted to hit. Not stated in the record: the amount of reagent, the time to read-out.

Aim: 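Knock-downs that reduce calcium influx once internal stores are emptied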 (primary screen)
Cells: Drosophila S2R+ cells
Reagents: long dsRNA against Drosophila genes
Treatment: thapsigargin (2 µM) in calcium-free buffer to empty internal stores, then 2 mM calcium added back
Read-out: 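Stores emptied by 2 µM thapsigargin without calcium, then 2 mM calcium re-added; fluo-4 fluorescence followed by FLIPR in 384-well plates, per-well averaged endpoint, raw; two screen passes, some wells retested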
Reading the numbers: calcium signal and retest calcium signal: higher = more calcium entry after store depletion
Hit rule: 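Knock-downs counted as hits when calcium entry dropped relative to STIM1 positive and Rho1 negative controls present on each plate; roughly 1500 genes called, with reductions of differing size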
Meaning of the calls: active = called as lowering calcium entry; inactive = not called

gene knocked down,PubChem SID,"calcium signal, replicate 1","calcium signal, replicate 2","retest calcium signal, replicate 1","retest calcium signal, replicate 2",call
Pi3K21B,SID104180563,77.7,189,,,inactive
Oseg2 (Outer segment 2),SID104188135,77.3,116,,,inactive
Syp (Syncrip),SID104195078,142,353,,,inactive
Pkn + Tsen15,SID104201579,102,161,,,inactive
hob (hobbit),SID104188218,109,99,,,inactive
CG12490,SID104183915,137,188,,,inactive
eIF6 (eukaryotic translation initiation factor 6),SID104184466,73.7,73.4,,,inactive
CG10339,SID104183857,87.7,171,,,inactive
FER (FER tyrosine kinase),SID104192527,,,,,inactive
FER (FER tyrosine kinase),SID104196465,108,128,,,inactive
Fdx2 (Ferredoxin 2),SID104188098,119,108,,,inactive
CG2938,SID104198035,117,137,,,inactive
Qsox1 (Quiescin sulfhydryl oxidase 1),SID104186670,63.2,112,130,100,inactive
lncRNA:CR32661 + lncRNA:CR43157,SID104199586,78.3,89.1,,,inactive
CG8508,SID104196228,90.5,120,,,inactive
CG14618,SID104200423,115,106,,,inactive
UGP (UDP-glucose pyrophosphorylase),SID104190203,113,150,,,inactive
SCOT (Succinyl-CoA:3-ketoacid CoA transferase),SID104187978,143,88.5,,,inactive
CG6885,SID104190532,76.1,123,,,inactive
Ada2b (transcriptional Adaptor 2b),SID104196323,114,122,,,inactive
CG14720,SID104194734,176,111,,,inactive
Rab26,SID104191629,52.1,171,,,active
Rab26,SID104191630,81.8,90.2,,,inactive
Rab26,SID104191631,61.2,113,,,active
ACXA (Adenylyl cyclase X A),SID104180636,106,103,,,inactive
CG12713,SID104189692,136,86.5,,,inactive
DIP-iota (Dpr-interacting protein iota),SID104181932,121,96.9,,,inactive
CG13071,SID104189746,91.8,134,,,inactive
CG8187,SID104186891,79.5,116,,,active
Cad74A (Cadherin 74A),SID104190428,80.8,167,,,inactive
Grik,SID104195638,159,233,,,inactive
Grik,SID104195639,197,141,,,inactive
Con (Connectin),SID104188444,92.1,91.8,,,inactive
CaMKII (Calcium/calmodulin-dependent protein kinase II),SID104197006,113,136,,,inactive
CG31294,SID104201751,101,224,,,inactive
CG5646,SID104195645,91.4,149,,,inactive
PNKP (Polynucleotide kinase 3'-phosphatase),SID104196304,123,93.2,,,inactive
CG14627,SID104198422,89.4,105,,,inactive
opa (odd paired),SID104192176,111,141,,,inactive
opa (odd paired),SID104201991,99.1,168,,,inactive
opa (odd paired),SID104202509,87.5,124,,,inactive
CG10949,SID104181904,95.1,83.2,,,inactive
Hil (Hillarin),SID104185781,129,90.5,,,inactive
Hil (Hillarin),SID104186187,66.4,108,,,inactive
TpnC41C (Troponin C at 41C),SID104184708,71.7,154,,,inactive
CG15446,SID104200310,68.3,126,,,active
Klp59D (Kinesin-like protein at 59D),SID104183910,95.9,215,,,inactive
RYa-R (RYamide receptor),SID104196549,117,147,,,inactive
CG17385,SID104186456,96.4,118,,,inactive
Adgf-C (Adenosine deaminase-related growth factor C),SID104196265,142,171,,,inactive
CG14434,SID104197719,329,173,,,inactive
CG11178,SID104199188,151,121,,,inactive
Cyp6w1 (Cytochrome P450 6w1),SID104184701,155,79.2,,,inactive
CG31462 (retired record),SID104194151,132,121,,,inactive
Cda5 (Chitin deacetylase-like 5),SID104179795,75.2,105,7271,159,active
Cda5 (Chitin deacetylase-like 5),SID104180321,198,161,,,inactive
Cda5 (Chitin deacetylase-like 5),SID104180324,174,144,,,inactive
Cda5 (Chitin deacetylase-like 5),SID104201111,101,90.1,,,inactive
CG2898,SID104198030,63.2,98,,,inactive
dUTPase (Deoxyuridine triphosphatase),SID104181790,115,102,,,inactive
CG17283,SID104195011,146,179,,,inactive
CG2116,SID104197998,107,78.7,,,inactive
CG8281,SID104190768,87.8,64.9,,,inactive
CG42560 + CG42559,SID104201509,85.7,165,,,inactive
CG43896,SID104190080,93.6,109,,,inactive
CG43896,SID104190546,115,118,,,inactive
fon (fondue),SID104182299,101,109,,,inactive
betaggt-I (beta subunit of type I geranylgeranyl transferase),SID104183286,166,86.2,,,inactive
Dgat2 (Diacylglycerol O-acyltransferase 2),SID104186595,196,126,,,inactive
RpL35A (Ribosomal protein L35A),SID104192094,122,99.9,,,inactive
CkIIalpha (casein kinase IIalpha),SID104191738,110,169,,,inactive
CG30479,SID104186527,154,192,,,inactive
Nnf1b,SID104201653,124,229,,,inactive
AGO3 (Argonaute 3),SID104201152,73.6,92.5,,,inactive
CG10804,SID104197556,122,172,,,inactive
ssx,SID104198284,120,151,,,inactive
PIG-T (Phosphatidylinositol glycan anchor biosynthesis class T),SID104197566,247,162,,,inactive
Cyp309a1 (Cytochrome P450 309a1),SID104180539,201,166,,,inactive
pan (pangolin),SID104196968,101,110,,,inactive
pan (pangolin),SID104202005,130,192,,,inactive
oys (oysgedart),SID104184995,73.8,96.1,,,inactive
oys (oysgedart),SID104186543,171,163,,,inactive
CG42455 + vnc,SID104189659,52.2,90.6,,,active
